Among all 340,000 compounds or so, about 6,200 (1.8%) were called active. The shares of active, inactive and inconclusive entries below differ from those in the screen. Calls follow the shape of the dose curve; as a rule, active = well fitted activation curve with a large enough effect; inconclusive = small, poorly fitted or top-dose-only effect; inactive = no such curve, though single readings can be large or run the other way. A potency beside an inconclusive call is a rough fit, not a confirmed value.
experiment: A quantitative high throughput screen for small molecules that induce DNA re-replication in SW480 colon adenocarcinoma cells.; also: nearly all actives have a fitted effect of over 55% in size; as to re-replication activation: % of control where 0% means no effect; settings: Hoechst DNA content imaging, 48 h; re-replication activation: at 46.1 µM (top of the series) unless noted
Summary of the method: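 250 cells/well; 23 nL cpd via pin tool; 48 hr, 37 C, 5% CO2; Hoechst 40 min; imager read of total nuclear intensity, ex 405/em 500-530 nm.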
Potency is read from the fitted curve at half-maximal effect.

SMILES	Potency	re-replication activation
O=C(CCNS(=O)(=O)c1ccc2c(c1)CCC(=O)N2)Nc1ccc(F)c(F)c1	inconclusive: 5.62 µM [activator, single point]	
Cc1ccc(N(CC(=O)NC(C)c2ccccc2)S(=O)(=O)c2c(C)n[nH]c2C)cc1 (stereo not given)	inconclusive: 29.1 µM [activator, single point]	
C/C(=N\NC(=O)c1ccn(C)n1)c1cccc(NC(=O)c2ccc(C)s2)c1	inconclusive: 23.1 µM [activator, partial curve, poor fit]	
CCN(CC)CCNC(=S)Nc1ccc2nc(N3CCN(C)CC3)cc(C)c2c1	inconclusive: 29.1 µM [activator, single point]	
COc1ccccc1CCNC(=O)Cc1cccs1	inconclusive: 4.11 µM [activator, full curve, poor fit]	
COc1cc2c(cc1OC)C(C)N(Cc1ccc3c(c1)OCO3)CC2 (stereo not given)	inconclusive: 16.4 µM [activator, single point]	
Cc1ccccc1NC(=O)CSC1=C(C#N)C(c2ccsc2)CC(=O)N1 (stereo not given)	inconclusive: 23.1 µM [activator, single point]	
COc1ccc2cc(Br)ccc2c1CC(=O)NC(C)C		inactive: 3.94%
O=c1[nH]c(=O)n(CCOc2ccc(Cl)cc2)cc1Br		inactive: -3.47%
CCCn1c(=O)c(C(=O)NCc2ccccc2)c(O)c2ccccc21	inconclusive: 29.1 µM [activator, single point]	
CC(=NNc1ccc2ccccc2n1)c1ccccc1O	inconclusive: 20.6 µM [activator, single point]	
CSc1ccc(C(=O)C2CCCN(C(=O)Cc3nonc3C)C2)cc1 (stereo not given)		inactive: 2.6%
COc1ccc(S(=O)(=O)N2CCN(C(=O)c3ccc(C)o3)CC2)cc1		inactive: 0.641%
Cc1ccc(/C=N/N2C(=S)SC(C)(C)C2N(O)C(=O)Nc2ccc([N+](=O)[O-])cc2)cc1 (stereo not given)	inconclusive: 7.31 µM [activator, partial curve, poor fit]	
O=C(CCCN1C(=O)/C(=C/c2cccc(Br)c2)SC1=S)Nc1cccnc1	active: 18.4 µM	
CC1(C)Cc2c(cnn2-c2ccc(F)cc2)C(NC(=O)CN2CCCCC2=O)C1 (stereo not given)		inactive: -4.05%
NS(=O)(=O)c1cc(C(=O)OCC(=O)NNC(=O)c2ccccc2)ccc1Cl	inconclusive: 0.82 µM [activator, full curve, poor fit]	
O=C(c1ccc(NC(=S)NCc2ccco2)cc1)N1CCOCC1	inconclusive: 0.0023 µM [activator, full curve, poor fit]	
Cc1cccc(Cn2cc(/C=C/[N+](=O)[O-])c3ccccc32)c1	inconclusive: 29.1 µM [activator, single point]	
O=C(N[C@@H]1C/C=C\C[C@H](CC(=O)N(CCO)Cc2ccccc2)C(=O)N[C@@H](Cc2ccccc2)COC1=O)OCC1c2ccccc2-c2ccccc21	inconclusive: 23.1 µM [activator, single point]	
Cc1ccc(Cn2nc(C)c(NC(=O)CSc3nc4c(c(C(F)(F)F)n3)CCc3ccccc3-4)c2C)cc1		inactive: -27.6%
Cc1ccc(C(=O)CCC(=O)Nc2cccc(C)c2)cc1	inconclusive: 29.1 µM [activator, single point]	

Among those listed so far, these have fluorine:
SMILES	Potency	re-replication activation
O=C(CCNS(=O)(=O)c1ccc2c(c1)CCC(=O)N2)Nc1ccc(F)c(F)c1	inconclusive: 5.62 µM [activator, single point]	
CC1(C)Cc2c(cnn2-c2ccc(F)cc2)C(NC(=O)CN2CCCCC2=O)C1 (stereo not given)		inactive: -4.05%
Cc1ccc(Cn2nc(C)c(NC(=O)CSc3nc4c(c(C(F)(F)F)n3)CCc3ccccc3-4)c2C)cc1		inactive: -27.6%

(cont.)

SMILES	Potency	re-replication activation
COCCCNCCCOc1ccc(C(C)(C)c2ccccc2)cc1	inconclusive: 32.6 µM [activator, partial curve, poor fit]	
OCC1OC(n2cnc3c(NC4CCCC4)ncnc32)C(O)C1O (stereo not given)	inconclusive: 0.058 µM [activator, partial curve, poor fit]	
CCOc1ccc(NCC(=O)Nc2ccc(C)cc2C)cc1	inconclusive: 29.1 µM [activator, single point]	
CN1CCN(C(=O)CCN2C(=O)/C(=C/c3cccc(Br)c3)SC2=S)CC1	inconclusive: 20.6 µM [activator, single point]	
CCCc1nn(C)c2c(=O)[nH]c(-c3cc(S(=O)(=O)Nc4ccc(NC(C)=O)cc4)ccc3OCC)nc12		inactive: 6.77%
CN(CC(=O)Nc1ccc(Cl)cc1)C(=O)Cc1c(F)cccc1Cl	inconclusive: 1.3 µM [activator, partial curve, poor fit]	
COCCn1c(-c2ccccc2)csc1=Nc1cccnc1	inconclusive: 11.6 µM [activator, partial curve]	
Cc1c(CC(=O)NCCC(C)C)c(=O)oc2cc3c(cc12)CCC(C)(C)O3	inconclusive: 32.6 µM [activator, partial curve, poor fit]	
Cc1ccccc1-c1cc(C(=O)NCc2cccs2)n(CC2CC(c3cccnc3)=NO2)n1 (stereo not given)	inconclusive: 0.146 µM [activator, full curve, poor fit]	
O=C(NC(=S)Nc1ccc(S(=O)(=O)N2CCCC2)cc1)C1CC1	inconclusive: 3.26 µM [activator, partial curve]	
CN1/C(=C\C(=S)NC(=O)c2cccc(Br)c2)C(C)(C)c2ccccc21	inconclusive: 20.6 µM [activator, partial curve, poor fit]	
COc1ccc(O)c(C=Nc2cc(C)on2)c1		inactive: 24.5%
COc1ccc(NC(=O)CN2C(=O)CSc3ccc(S(=O)(=O)N4CCC(C)CC4)cc32)cc1	inconclusive: 29.1 µM [activator, single point]	
Cn1cccc1Cc1nnc(SCC(=O)NC2CCCCC2)n1CCc1ccccc1	inconclusive: 23.1 µM [activator, single point]	
CCOC(=O)/C(=C\c1cn(C)c2ccccc12)[N+](=O)[O-]	inconclusive: 29.1 µM [activator, single point]	
CC(C)c1nc(SCC(=O)NC2CCCC2)c2c(=O)n(C)c(=O)n(C)c2n1		inactive: -11.6%
Cc1cc(=O)oc2cc(OCC(=O)Nc3ccc(N4CCC(C)CC4)cc3)ccc12	inconclusive: 18.4 µM [activator, single point]	
COc1ccc(Cl)cc1C(=O)N(Cc1nc(-c2cccc(C)c2)no1)C(C)C	inconclusive: 29.1 µM [activator, single point]	
COc1ccccc1CNC(=O)c1ccc(Cl)c(S(=O)(=O)N2CCCC2)c1		inactive: -7.01%
CC1(C)Cc2c(ccc3ccccc23)/C(=C/C(=O)N2CCCCC2)N1	inconclusive: 13 µM [activator, partial curve, poor fit]	
O=C(Cn1nnc2ccccc21)Nc1ccc(Cl)cn1	inconclusive: 23.1 µM [activator, single point]	
O=C(/C=C\c1ccco1)c1ccc(NC(=O)c2ccco2)cc1	inconclusive: 16.4 µM [activator, single point]	

SMILES	Potency	re-replication activation
O=C(CSc1nc2ccccc2[nH]1)NC1CCS(=O)(=O)C1 (stereo not given)	inconclusive: 25.9 µM [activator, single point]	
CC1CN(C(=O)c2cc(S(=O)(=O)N3CCN(c4ccccc4)CC3)ccc2Cl)CC(C)O1 (stereo not given)		inactive: -4.9%
Cc1ccc(NC(=O)Cn2c(O)c(N=NC(=O)c3cc4ccccc4cc3O)c3ccccc32)cc1	inconclusive: 6.51 µM [activator, single point]	
CC(=O)c1cccc(OCc2cc(C(=O)N(C)CCc3cnn(C)c3)no2)c1	inconclusive: 29.1 µM [activator, single point]	
CCOC(=O)C1CCN(c2ncnc3c2oc2ccc(Br)cc23)CC1	inconclusive: 29.1 µM [activator, single point]	
COc1ccccc1Nc1c2c(nc3ccc(N)cc13)CCCC2	inconclusive: 29.1 µM [activator, single point]	
CC(C)Sc1cc(N2CCOCC2)nc(-c2ccccc2)n1	inconclusive: 29.1 µM [activator, partial curve, poor fit]	
O=C(CC1OC(=O)c2ccccc21)NNC(=O)c1ccc(F)cc1 (stereo not given)		inactive: -5.37%
Cn1c(CCNC(=O)c2ccco2)nc2cc(NS(=O)(=O)c3ccccc3)ccc21		inactive: -6.76%
O=C(Nc1ccc(NC(=S)NC(=O)c2cccs2)cc1)c1ccccc1	inconclusive: 7.31 µM [activator, partial curve, poor fit]	
CCOC(=O)c1c(C)[nH]c(C)c1C(=O)COC(=O)CNC(=O)c1ccc(OCC)cc1	inconclusive: 32.6 µM [activator, partial curve, poor fit]	
CCOc1ccccc1C1CC(c2cccc(NS(C)(=O)=O)c2)=NN1C(=O)c1ccccc1 (stereo not given)	inconclusive: 29.1 µM [activator, partial curve, poor fit]	
CC(Sc1ccsc1[N+](=O)[O-])C(=O)NCCc1ccc(Cl)cc1 (stereo not given)	inconclusive: 29.1 µM [activator, single point]	
COC(=O)CSc1nc2cc(OC)ccc2n1C		inactive: -5.85%
CCN1CCC2(CCN(C(=O)c3cc(COc4cc(C)ccc4C)on3)C2)C1 (stereo not given)	inconclusive: 20.6 µM [activator, single point]	
O=C(COc1ccccc1)NC(=S)N1CCc2ccccc21	inconclusive: 0.731 µM [activator, full curve, poor fit]	
COc1ccc(NC(=S)Nc2ccc(S(=O)(=O)N3CCOCC3)cc2)c(OC)c1		inactive: -7.63%
Cc1cc(NC(=O)CCCn2cnc([N+](=O)[O-])n2)no1	inconclusive: 13 µM [activator, partial curve]	
CC(=O)Nc1cccc(NC(=O)CSc2ccc(-c3ccccn3)nn2)c1	inconclusive: 29.1 µM [activator, single point]	
COc1ccc2c(c1)C(C)=CC(C)(C)N2S(=O)(=O)c1ccc(Br)cc1	active: 18.4 µM	
Cc1cc2c(cc1S(=O)(=O)N1CCN(c3cccc(C(F)(F)F)c3)CC1)OCC(=O)N2	inconclusive: 14.6 µM [activator, partial curve, poor fit]	

Reference: PubChem BioAssay AID624297 (National Center for Advancing Translational Sciences (NCATS), 2012)
